# Assay results published in patent US5451522A, “Genes encoding and method of expressing an enzyme: phthalyl amidase” (priority 1994, dated 1995).
# By UniProt entry, the sequences of proteins in these tests, tags left out. Residues count along the entry.
# UniProt P0C2Y0, 2-453: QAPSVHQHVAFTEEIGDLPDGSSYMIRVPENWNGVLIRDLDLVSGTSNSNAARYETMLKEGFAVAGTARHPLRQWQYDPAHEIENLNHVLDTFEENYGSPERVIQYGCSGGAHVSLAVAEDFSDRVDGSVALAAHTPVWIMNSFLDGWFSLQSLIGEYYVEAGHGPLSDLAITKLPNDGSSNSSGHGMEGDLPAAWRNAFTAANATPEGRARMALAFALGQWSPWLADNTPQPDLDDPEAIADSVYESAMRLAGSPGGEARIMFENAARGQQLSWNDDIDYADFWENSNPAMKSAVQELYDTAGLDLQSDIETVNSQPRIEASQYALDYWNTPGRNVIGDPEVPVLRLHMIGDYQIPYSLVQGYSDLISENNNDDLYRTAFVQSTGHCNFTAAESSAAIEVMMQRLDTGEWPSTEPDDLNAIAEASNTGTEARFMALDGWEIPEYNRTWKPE
# For at least one compound, name, drawing or mass did not settle the structure.
# Molecular target: T1, phthalyl amidase (Xanthobacter agilis, UniProt P0C2Y0)
# T1 construct: 42-aa signal peptide removed
# Experiment: Substrate specificity: chemical structure requirements for enzyme activity
# Format: biochemical
# Conditions: Tables 10 and 11
# Description: The activity of phthalyl amidase against 25 compounds was determined. The compounds were divided into beta-lactams (Table 9), phthalyl amides (Table 10), and aromatic ring substituted amides (Table 11). Each reaction mixture (1 ml total volume) contained 2.5 μmol of compound and 0.3 units of enzyme (based on the chromogenic substrate) of the preparative scale purified enzyme, in 50 mM phosphate buffer, pH 8.0. The reactions were conducted at 30° C. Samples of the reaction mixture were taken at various times, and methanol (equal volume) was added to stop the reaction. The samples were examined by HPLC to determine the extent of substrate hydrolysis. The amount of compound hydrolyzed was calculated from a standard curve of the test compound. All substrates were stable in buffer at 30° C. and pH 8.0 in the absence of enzyme for 24 hours.
compound,measurement,value
"COC(=O)c1ccccc1C(=O)O [IX, phthalate mono methyl ester]",suitability as substrate (in words),ability to hydrolyze
